The values below come from article PMC5767185, “Arabidopsis G-Protein β Subunit AGB1 Interacts with BES1 to Regulate Brassinosteroid Signaling and Cell Elongation” (Frontiers in Plant Science, 2017).

Results are given in words; binding and its absence hold for the method and conditions named. For some assays here: Binding calls can cover weak binding; strength is not graded here. Tags and fused reporters may be left off the sequences shown.

Some targets named below: BD-BES1ΔP (Arabidopsis); BD-BES1ΔC (Arabidopsis); BD-BES1ΔN (Arabidopsis).
Experiment in all cases: two-hybrid; GAL4 system, pGBKT7 baits (BES1 and deletions) and pGADT7 prey (AGB1) in strain AH109; growth on SD-T-L-H-A plates, 5 days
Experiment [1] addresses BD-BES1ΔPEST (Arabidopsis).
Experiment [2] addresses BD-BES1ΔNLS (Arabidopsis).

B1: GAL4 AD fused to full-length AGB1 (AD-AGB1) (protein, UniProt P49177 1-377)
chain: MSVSELKERHAVATETVNNLRDQLRQRRLQLLDTDVARYSAAQGRTRVSFGATDLVCCRTLQGHTGKVYSLDWTPERNRIVSASQDGRLIVWNALTSQKTHAIKLPCAWVMTCAFSPNGQSVACGGLDSVCSIFSLSSTADKDGTVPVSRMLTGHRGYVSCCQYVPNEDAHLITSSGDQTCILWDVTTGLKTSVFGGEFQSGHTADVLSVSISGSNPNWFISGSCDSTARLWDTRAASRAVRTFHGHEGDVNTVKFFPDGYRFGTGSDDGTCRLYDIRTGHQLQVYQPHGDGENGPVTSIAFSVSGRLLFAGYASNNTCYVWDTLLGEVVLDLGLQQDSHRNRISCLGLSADGSALCTGSWDSNLKIWAFGGHRRVI
B1: the binding entry with BD-BES1ΔP (Arabidopsis) is recorded as “no binding”; with BD-BES1ΔC (Arabidopsis), “binds”; in experiment [1] it was “no binding”; in experiment [2], “binds”; with BD-BES1ΔN (Arabidopsis) it was “binds”.
